ChEMBL document CHEMBL2069234, “Aristoxazole analogues. Conversion of 8-nitro-1-naphthoic acid to 2-methylnaphtho[1,2-d]oxazole-9-carboxylic acid: comments on the chemical mechanism of formation of DNA adducts by the aristolochic acids” (J Nat Prod, 2012)

Experiments:
Salmonella typhimurium = test: Mutagenicity in Salmonella typhimurium TA100; format: toxicity, organism-based; conditions: salmonella enterica subsp. enterica serovar typhimurium
[1] = Drug conversion assessed as formation of oxazole derivatives in presence of Zn/HOAc; format: physicochemical

## O=C(O)c1cccc2cccc([N+](=O)[O-])c12
Salmonella typhimurium
  Activity: Toxic
[1]
  Drug metabolism: Active
